Experimental data taken from paper PMC9729291.

Chains of the proteins cited; added tags and fusions are not shown.
UniProt Q12834: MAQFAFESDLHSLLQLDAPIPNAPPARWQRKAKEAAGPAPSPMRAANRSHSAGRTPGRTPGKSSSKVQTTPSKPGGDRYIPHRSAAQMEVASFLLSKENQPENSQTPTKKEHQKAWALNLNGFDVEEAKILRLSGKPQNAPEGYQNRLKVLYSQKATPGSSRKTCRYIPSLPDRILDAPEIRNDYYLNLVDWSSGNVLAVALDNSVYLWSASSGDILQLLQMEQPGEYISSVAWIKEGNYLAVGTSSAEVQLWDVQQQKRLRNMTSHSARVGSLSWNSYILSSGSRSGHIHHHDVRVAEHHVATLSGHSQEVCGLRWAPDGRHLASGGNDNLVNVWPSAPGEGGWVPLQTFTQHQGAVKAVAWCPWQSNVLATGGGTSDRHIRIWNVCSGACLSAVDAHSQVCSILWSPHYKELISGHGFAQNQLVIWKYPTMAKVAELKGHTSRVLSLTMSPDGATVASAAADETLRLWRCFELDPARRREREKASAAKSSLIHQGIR
UniProt P63151: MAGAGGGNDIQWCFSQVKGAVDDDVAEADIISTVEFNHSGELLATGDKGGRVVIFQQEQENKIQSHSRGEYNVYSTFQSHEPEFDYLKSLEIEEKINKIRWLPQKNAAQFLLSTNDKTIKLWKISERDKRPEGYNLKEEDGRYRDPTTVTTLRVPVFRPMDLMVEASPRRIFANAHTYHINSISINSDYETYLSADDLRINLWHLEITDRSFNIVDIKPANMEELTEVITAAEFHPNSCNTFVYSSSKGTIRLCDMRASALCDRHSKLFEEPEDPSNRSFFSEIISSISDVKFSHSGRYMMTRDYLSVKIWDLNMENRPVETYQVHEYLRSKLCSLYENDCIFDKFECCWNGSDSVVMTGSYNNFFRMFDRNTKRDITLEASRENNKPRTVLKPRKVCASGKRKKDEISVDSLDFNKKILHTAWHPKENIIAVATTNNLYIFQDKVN

T1: SLFN5 (Schlafen family member 5), endogenous (human (endogenous in U2OS and Jurkat E6.1)) (UniProt Q08AF3)
T1 sequence: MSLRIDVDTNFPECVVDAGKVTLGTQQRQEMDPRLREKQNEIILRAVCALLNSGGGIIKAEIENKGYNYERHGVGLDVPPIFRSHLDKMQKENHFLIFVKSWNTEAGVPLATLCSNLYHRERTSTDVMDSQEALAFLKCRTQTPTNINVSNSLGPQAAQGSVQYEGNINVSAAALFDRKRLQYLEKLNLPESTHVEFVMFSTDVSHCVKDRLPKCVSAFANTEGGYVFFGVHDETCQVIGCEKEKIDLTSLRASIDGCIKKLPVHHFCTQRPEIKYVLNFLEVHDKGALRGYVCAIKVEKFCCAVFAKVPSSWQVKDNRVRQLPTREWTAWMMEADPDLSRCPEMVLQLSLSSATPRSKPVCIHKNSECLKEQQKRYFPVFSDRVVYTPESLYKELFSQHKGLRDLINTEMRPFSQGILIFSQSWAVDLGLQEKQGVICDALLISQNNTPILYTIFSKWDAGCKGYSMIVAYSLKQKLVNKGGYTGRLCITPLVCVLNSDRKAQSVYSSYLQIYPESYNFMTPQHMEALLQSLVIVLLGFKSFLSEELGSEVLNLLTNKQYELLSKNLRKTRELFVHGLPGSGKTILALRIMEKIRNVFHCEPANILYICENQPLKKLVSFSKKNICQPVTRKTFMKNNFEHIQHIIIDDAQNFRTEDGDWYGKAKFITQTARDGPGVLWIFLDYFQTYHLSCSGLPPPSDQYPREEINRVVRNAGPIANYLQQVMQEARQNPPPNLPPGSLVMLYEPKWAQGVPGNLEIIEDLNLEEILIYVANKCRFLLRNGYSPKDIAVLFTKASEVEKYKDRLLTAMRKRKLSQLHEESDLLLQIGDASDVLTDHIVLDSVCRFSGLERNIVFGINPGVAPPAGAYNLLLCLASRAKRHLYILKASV


Target: T1, SLFN5 (Schlafen family member 5), endogenous (human (endogenous in U2OS and Jurkat E6.1))
Test: affinity purification with mass spectrometry; endogenous SLFN5 precipitated from nuclear lysate with anti-SLFN5 #112/5/6 covalently coupled to resin, native conditions, 150 mM NaCl binding, 250 mM NaCl washes, 4 °C overnight; IgG control IP; three replicates, label-free quantification

binding | Molecule
binds | APC/C activator protein CDC20, endogenous (from UniProt Q12834 1-499)
binds | serine/threonine-protein phosphatase 2A regulatory subunit B55α, endogenous (from UniProt P63151 1-447)
binds | serine/threonine-protein phosphatase 5, endogenous (protein, UniProt P53041 1-499) MAMAEGERTECAEPPRDEPPADGALKRAEELKTQANDYFKAKDYENAIKFYSQAIELNPSNAIYYGNRSLAYLRTECYGYALGDATRAIELDKKYIKGYYRRAASNMALGKFRAALRDYETVVKVKPHDKDAKMKYQECNKIVKQKAFERAIAGDEHKRSVVDSLDIESMTIEDEYSGPKLEDGKVTISFMKELMQWYKDQKKLHRKCAYQILVQVKEVLSKLSTLVETTLKETEKITVCGDTHGQFYDLLNIFELNGLPSETNPYIFNGDFVDRGSFSVEVILTLFGFKLLYPDHFHLLRGNHETDNMNQIYGFEGEVKAKYTAQMYELFSEVFEWLPLAQCINGKVLIMHGGLFSEDGVTLDDIRKIERNRQPPDSGPMCDLLWSDPQPQNGRSISKRGVSCQFGPDVTKAFLEENNLDYIIRSHEVKAEGYEVAHGGRCVTVFSAPNYCDQMGNKASYIHLQGSDLRPQFHQFTAVPHPNVKPMAYANTLLQLGMM
binds | origin recognition complex subunit 2, endogenous (protein, UniProt Q13416 1-577) MSKPELKEDKMLEVHFVGDDDVLNHILDREGGAKLKKERAQLLVNPKKIIKKPEYDLEEDDQEVLKDQNYVEIMGRDVQESLKNGSATGGGNKVYSFQNRKHSEKMAKLASELAKTPQKSVSFSLKNDPEITINVPQSSKGHSASDKVQPKNNDKSEFLSTAPRSLRKRLIVPRSHSDSESEYSASNSEDDEGVAQEHEEDTNAVIFSQKIQAQNRVVSAPVGKETPSKRMKRDKTSDLVEEYFEAHSSSKVLTSDRTLQKLKRAKLDQQTLRNLLSKVSPSFSAELKQLNQQYEKLFHKWMLQLHLGFNIVLYGLGSKRDLLERFRTTMLQDSIHVVINGFFPGISVKSVLNSITEEVLDHMGTFRSILDQLDWIVNKFKEDSSLELFLLIHNLDSQMLRGEKSQQIIGQLSSLHNIYLIASIDHLNAPLMWDHAKQSLFNWLWYETTTYSPYTEETSYENSLLVKQSGSLPLSSLTHVLRSLTPNARGIFRLLIKYQLDNQDNPSYIGLSFQDFYQQCREAFLVNSDLTLRAQLTEFRDHKLIRTKKGTDGVEYLLIPVDNGTLTDFLEKEEEEA

No constants are given. Whether binding was seen depends on the method and setting. Binding seen in cells or lysates may run through a third protein. A yes stands for co-enrichment or nearness to the bait. Other partners may have been found.
